Measurements published in paper PMC11661308.
Results are given in words; binding and its absence hold for the method and conditions named. In cells and extracts the contact can be indirect. Some entries that bind do so weakly or less than the wild type.

By UniProt entry, the sequences of proteins in these tests, tags left out.
UniProt P49407: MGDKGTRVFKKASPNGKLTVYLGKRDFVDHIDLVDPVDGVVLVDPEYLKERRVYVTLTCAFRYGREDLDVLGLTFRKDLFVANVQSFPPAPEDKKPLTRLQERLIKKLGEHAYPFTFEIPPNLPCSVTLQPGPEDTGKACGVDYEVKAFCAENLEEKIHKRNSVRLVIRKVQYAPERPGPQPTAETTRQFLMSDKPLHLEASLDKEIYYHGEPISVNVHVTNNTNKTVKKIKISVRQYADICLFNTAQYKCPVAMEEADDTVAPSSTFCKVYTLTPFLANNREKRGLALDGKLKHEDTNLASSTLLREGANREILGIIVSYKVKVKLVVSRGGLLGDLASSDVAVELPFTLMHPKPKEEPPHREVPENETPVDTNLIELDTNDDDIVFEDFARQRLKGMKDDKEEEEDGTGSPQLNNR

Biological target: Rluc8-tagged human neurotensin receptor 1 (NTSR1) (human) (UniProt P30989)
Assay: FRET or BRET; BRET1 in live HEK293T cells: Rluc8-tagged NTSR1 (donor) and Venus-tagged β-arrestin1 or 2 (acceptor); cells treated with NT, PD149163 or SBI-553 (also SR142948A; NT after SBI-553 or SR142948A pretreatment); HBSS with 20 mM HEPES, read at 35°C

Substance | binding
human mVenus-β-arrestin1 (from UniProt P49407 1-418) | binds
human mVenus-β-arrestin2 (from UniProt P32121 1-409) | binds
